How the values were obtained:
[1] = system: SARS-CoV-2; test: microbe, parasite or virus in culture; assay type: cell-based; conditions: Severe acute respiratory syndrome coronavirus 2, Huh-7 cells
[2] = system: SigmaR2; conditions: literature value (Moebius et al. 1997); cited from earlier work

CCCCc1oc2ccccc2c1C(=O)c1cc(I)c(OCCN(CC)CC)c(I)c1 [Amiodarone]
EC50 ([1]; MOI 0.2, 10-point two-fold dilution dose response in triplicate): 52 nM | IC50 ([1]; read-out: IC50 against SARS-CoV-2 infection): 52 nM | IC50 [2]: 1 nM

Reference: patent US20240016901A1, “COMPOSITIONS AND METHODS FOR PREVENTING AND TREATING SARS-COV-2 INFECTION” (priority 2020, published 2024)
